In US20210054094A1:
These are yes or no findings as the source states them, for the method shown. Binding calls can cover weak binding; strength is not graded here.

B1: 5E11 IgG (antibody, V domains shown)
VH: ELQLEQSGGGLVQPGGSLTLSCAASGFTFSKYAMAWVRQAPTKGLEWVASISTGGVNTYYRDSVKARFTISRDNAKNTQYLQMDSLRSEDTATYYCATHTGDYFDYWGQGVMVTVSS
VL: DIVLTQSPALAVSPGQRATISCRASQSVSISGINLMNWYQQKPGQQPKLLIYHASILASGIPTRFSGSGSGTDFTLTIDPVQADDIATYYCQQTRESPLTFGSGTNLEIK
B2: 10B10 IgG (antibody, V domains shown)
VH: EVQLVESGGGLVQPGRSMKLSCAASGFTFTNFYMAWVRQAPTKALEWVASINTGGGYTYYRDSVKGRFTVSRDNTRSTLYLQMDSLRSEETATYYCARHLTYYGRYYYFDYWGQGVMVTVSS
VL: DIQLTQSPHSLSASLGETVSIECLASEGISNYLAWFHQKPGKSPQLLIYYASSLQDGVPSRFSGSGSGTQYSLKISNMQPEDEGVYYCQQGYKYPLTFGSGTKLEIK
B3: 07A04 IgG (antibody, V domains shown)
VH: QVTLKESGPGILQPSHTLSLTCSFSGFSLSTYGMGVNWIRQPSGKGLEWLASIWWNGNTYNNPSLKSRLTVSKDTSNNQAFLKVTSVDTADTATYYCVHTRGIIRGRGLFFDYWGQGVMVTVSS
VL: DVQMTQSPYNLAASPGESVSINCKASKSISKYLAWYQQKPGKANKLLIYDGSTLQSGIPSRFSGSGSGTDFTLTIRSLEPEDFGLYYCQQHNEYPLTFGSGTKLEIKR
B4: 5F11 IgG (antibody, V domains shown)
VH: EVQLVESGGGLVQPGRSLKLSCAASGFSFSNYGMAWVRQAATKGLEWVASISTGGGNTYYRDSVKGRFIVSRDNAKNTQYLQMDSLRSEDTATYYCTRHDRGGLYWGQGVMVTVSS
VL: DIVMTQAPLSVSVTPGESASISCRSSKSLLHSNGITYVYWYFQKPGKSPQVLIYRMSNLASGVPDRFSGSGSETDFTLKISRVEAEDVGIYHCGQLLENPYTFGAGTELELK

Each binder was assayed against cynomolgus GPRC5D (cynomolgus) (assay: cell ELISA, CHO expressing cynomolgus GPRC5D).

binding | Binder
binds | B1
binds | B2
binds | B3
binds | B4
